Experimental data taken from patent publication US8216786B2, “Genetic polymorphisms associated with cardiovascular diseases, methods of detection and uses thereof” (Celera Corporation, priority 2008, dated 2012).
Further values from the same series stand in other lists.

Test system: individuals who have previously had an MI
Assay: CARE trial: effect of pravastatin vs placebo on coronary events (endpt1, rmi) by SNP genotype subgroup
Assay type: in vivo, human
Conditions: endpt1
Experimental: In Tables 21-22, the column labeled “Endpoint” indicates whether the endpoint that was analyzed was the primary endpoint of the CARE study (a composite endpoint of fatal coronary event or nonfatal MI, and identified as “endpt1”) or a composite endpoint of confirmed fatal or nonfatal MI (identified as “rmi”). […] As used herein, the term “benefit” (with respect to a preventive or therapeutic drug treatment) is defined as achieving a reduced risk for a disease that the drug is intended to treat or prevent (e.g., CVD such as CHD, particularly MI, or hypertension) by administering the drug treatment, compared with the risk for the disease in the absence of receiving the drug treatment (or receiving a placebo in lieu of the drug treatment) for the same genotype. […] J. […] (1996) New England Journal of Medicine 335: 1001-1009. […] A well-documented MI was one of the enrollment criteria for entry into the CARE study. Patients were enrolled in the CARE trial from 80 participating study centers. […] For the study of CARE described in this Example and shown in Tables 21-22, two endpoints were investigated: the primary endpoint of CARE (a composite endpoint of fatal coronary event or nonfatal MI, and identified as “endpt1” in the Endpoint column of Tables 21-22) and a composite endpoint of confirmed fatal or nonfatal MI (identified as “rmi” in the Endpoint column of Tables 21-22). […] HR stands for Hazard Ratio, which is a concept similar to Odds Ratio (OR). The HR in event-free survival analysis is the effect of an explanatory variable on the hazard or risk of an event. […] In Table 21, p-interaction values were calculated. An interaction (or effect modification) is formed when a third variable modifies the relation between an exposure and outcome. […] Genotype and drug interaction is present when the effect of statins (incidence rate of disease in statin-treated group, as compared to placebo) differs in patients with different genotypes.

[1] = hCV8785827 rs992969 IL33, strata GG
[2] = hCV8892418 rs901746 ACP2, strata AA
[3] = hCV8892418 rs901746 ACP2, strata GA + GG
[4] = hCV9581635 rs1748195 DOCK7, strata CC
[5] = hCV9581635 rs1748195 DOCK7, strata CG + GG
[6] = hCV9586862 rs995000 DOCK7, strata CC
[7] = hCV9586862 rs995000 DOCK7, strata CT + TT
[8] = hCV11170747 rs2066853 AHR, Strata AG + AA
[9] = hCV11170747 rs2066853 AHR, Strata GG
[10] = hCV11181829 rs5713 ACSM3, Strata CT + CC
[11] = hCV11181829 rs5713 ACSM3, Strata TT
[12] = hCV11225994 rs1853021 LPA, Strata AG + AA
[13] = hCV11225994 rs1853021 LPA, Strata GG
[14] = hCV11438723 rs1877273 WWOX, Strata TC + CC
[15] = hCV11438723 rs1877273 WWOX, Strata TT
[16] = hCV11461296 JAK3, Strata CG + CC
[17] = hCV11466848 rs1805419 BAX, Strata AG + AA
[18] = hCV11466848 rs1805419 BAX, Strata GG
[19] = hCV11513719 rs2967605 ELAVL1, Strata CC
[20] = hCV11513719 rs2967605 ELAVL1, Strata TC + TT
[21] = hCV11568668 rs1317538 KCNQ5, strata AA
[22] = hCV11568668 rs1317538 KCNQ5, strata AG
[23] = hCV11568668 rs1317538 KCNQ5, strata GG
[24] = hCV11628130 rs2665802 GH1, Strata TA + AA
[25] = hCV11628130 rs2665802 GH1, Strata TT
[26] = hCV11642651 rs1800440 C2orf58, Strata CC
[27] = hCV11642651 rs1800440 C2orf58, Strata CT + TT
[28] = hCV11678789 rs7219148, strata TG + GG
[29] = hCV11678789 rs7219148, strata TT
[30] = hCV11697322 rs1926447 CPB2, Strata AG + AA
[31] = hCV11697322 rs1926447 CPB2, Strata GG
[32] = hCV11764545 rs4961 ADD1, Strata TG + GG
[33] = hCV11764545 rs4961 ADD1, Strata TT
[34] = hCV11864162 rs1167998 DOCK7, strata AA
[35] = hCV11864162 rs1167998 DOCK7, strata AC + CC
[36] = hCV11955747 rs9901673 CD68, Strata AC + AA
[37] = hCV11955747 rs9901673 CD68, Strata CC
[38] = hCV11972326 rs5988 F13A1, Strata GC + CC
[39] = hCV11972326 rs5988 F13A1, Strata GG
[40] = hCV12020339 rs4531 DBH, Strata GG
[41] = hCV12020339 rs4531 DBH, Strata TG + TT
[42] = hCV12108469 CYP4A11, Strata AG + GG
[43] = hCV15746640 rs41271951 CTSS, Strata AA
[44] = hCV15746640 rs41271951 CTSS, Strata GA + GG
[45] = hCV15758290 rs6716834 LRP2, Strata AA
[46] = hCV15758290 rs6716834 LRP2, Strata GA + GG
[47] = hCV15760070 rs2308911 HLA-DPA1, Strata TA + AA
[48] = hCV15760070 rs2308911 HLA-DPA1, Strata TT

## CC[C@H](C)C(=O)O[C@H]1C[C@H](O)C=C2C=C[C@H](C)[C@H](CC[C@@H](O)C[C@@H](O)CC(=O)O)[C@H]21 [pravastatin]
[1]
  EVENTS (Pravastatin arm): 75
  NONEVENT (Pravastatin arm): 675
[2]
  EVENTS (Pravastatin arm): 83
  NONEVENT (Pravastatin arm): 632
[3]
  EVENTS (Pravastatin arm): 53
  NONEVENT (Pravastatin arm): 630
[4]
  EVENTS (Pravastatin arm): 52
  NONEVENT (Pravastatin arm): 575
[5]
  EVENTS (Pravastatin arm): 84
  NONEVENT (Pravastatin arm): 687
[6]
  EVENTS (Pravastatin arm): 52
  NONEVENT (Pravastatin arm): 577
[7]
  EVENTS (Pravastatin arm): 84
  NONEVENT (Pravastatin arm): 688
[8]
  EVENTS (Pravastatin arm): 20
  NONEVENT (Pravastatin arm): 283
[9]
  EVENTS (Pravastatin arm): 112
  NONEVENT (Pravastatin arm): 1008
[10]
  EVENTS (Pravastatin arm): 8
  NONEVENT (Pravastatin arm): 23
[11]
  EVENTS (Pravastatin arm): 124
  NONEVENT (Pravastatin arm): 1259
[12]
  EVENTS (Pravastatin arm): 37
  NONEVENT (Pravastatin arm): 311
[13]
  EVENTS (Pravastatin arm): 92
  NONEVENT (Pravastatin arm): 973
[14]
  EVENTS (Pravastatin arm): 133
  NONEVENT (Pravastatin arm): 1270
[15]
  EVENTS (Pravastatin arm): 0
  NONEVENT (Pravastatin arm): 12
[16]
  EVENTS (Pravastatin arm): 1
  NONEVENT (Pravastatin arm): 49
hCV11461296 JAK3, Strata GG
  EVENTS (Pravastatin arm): 125
  NONEVENT (Pravastatin arm): 1204
[17]
  EVENTS (Pravastatin arm): 53
  NONEVENT (Pravastatin arm): 620
[18]
  EVENTS (Pravastatin arm): 83
  NONEVENT (Pravastatin arm): 645
[19]
  EVENTS (Pravastatin arm): 95
  NONEVENT (Pravastatin arm): 832
[20]
  EVENTS (Pravastatin arm): 40
  NONEVENT (Pravastatin arm): 425
[21]
  EVENTS (Pravastatin arm): 43
  NONEVENT (Pravastatin arm): 324
[22]
  EVENTS (Pravastatin arm): 70
  NONEVENT (Pravastatin arm): 607
[23]
  EVENTS (Pravastatin arm): 23
  NONEVENT (Pravastatin arm): 336
[24]
  EVENTS (Pravastatin arm): 113
  NONEVENT (Pravastatin arm): 1034
[25]
  EVENTS (Pravastatin arm): 18
  NONEVENT (Pravastatin arm): 254
[26]
  EVENTS (Pravastatin arm): 3
  NONEVENT (Pravastatin arm): 54
[27]
  EVENTS (Pravastatin arm): 130
  NONEVENT (Pravastatin arm): 1237
[28]
  EVENTS (Pravastatin arm): 111
  NONEVENT (Pravastatin arm): 918
[29]
  EVENTS (Pravastatin arm): 25
  NONEVENT (Pravastatin arm): 348
hCV11689916, Strata AA
  EVENTS (Pravastatin arm): 35
  NONEVENT (Pravastatin arm): 369
hCV11689916, Strata AT + TT
  EVENTS (Pravastatin arm): 97
  NONEVENT (Pravastatin arm): 863
[30]
  EVENTS (Pravastatin arm): 74
  NONEVENT (Pravastatin arm): 632
[31]
  EVENTS (Pravastatin arm): 59
  NONEVENT (Pravastatin arm): 655
[32]
  EVENTS (Pravastatin arm): 131
  NONEVENT (Pravastatin arm): 1238
[33]
  EVENTS (Pravastatin arm): 2
  NONEVENT (Pravastatin arm): 52
[34]
  EVENTS (Pravastatin arm): 52
  NONEVENT (Pravastatin arm): 570
[35]
  EVENTS (Pravastatin arm): 84
  NONEVENT (Pravastatin arm): 692
[36]
  EVENTS (Pravastatin arm): 30
  NONEVENT (Pravastatin arm): 399
[37]
  EVENTS (Pravastatin arm): 103
  NONEVENT (Pravastatin arm): 891
[38]
  EVENTS (Pravastatin arm): 120
  NONEVENT (Pravastatin arm): 1217
[39]
  EVENTS (Pravastatin arm): 13
  NONEVENT (Pravastatin arm): 69
[40]
  EVENTS (Pravastatin arm): 104
  NONEVENT (Pravastatin arm): 1095
[41]
  EVENTS (Pravastatin arm): 28
  NONEVENT (Pravastatin arm): 192
hCV12108469 CYP4A11, Strata AA
  EVENTS (Pravastatin arm): 2
  NONEVENT (Pravastatin arm): 60
[42]
  EVENTS (Pravastatin arm): 128
  NONEVENT (Pravastatin arm): 1225
[43]
  EVENTS (Pravastatin arm): 109
  NONEVENT (Pravastatin arm): 1096
[44]
  EVENTS (Pravastatin arm): 24
  NONEVENT (Pravastatin arm): 194
[45]
  EVENTS (Pravastatin arm): 58
  NONEVENT (Pravastatin arm): 635
[46]
  EVENTS (Pravastatin arm): 75
  NONEVENT (Pravastatin arm): 648
[47]
  EVENTS (Pravastatin arm): 126
  NONEVENT (Pravastatin arm): 1258
[48]
  EVENTS (Pravastatin arm): 7
  NONEVENT (Pravastatin arm): 31
hCV15851335 rs17610395 CPT1A, Strata CC
  EVENTS (Pravastatin arm): 111
